According to the supplement of paper PMC10849652:
Some of the results follow.

The chains behind the UniProt entries cited, without tags or fusion partners. Where a name states a change or a piece, a line headed by the entry shows the natural chain unless it says otherwise.
UniProt Q01082, whole entry, looked up: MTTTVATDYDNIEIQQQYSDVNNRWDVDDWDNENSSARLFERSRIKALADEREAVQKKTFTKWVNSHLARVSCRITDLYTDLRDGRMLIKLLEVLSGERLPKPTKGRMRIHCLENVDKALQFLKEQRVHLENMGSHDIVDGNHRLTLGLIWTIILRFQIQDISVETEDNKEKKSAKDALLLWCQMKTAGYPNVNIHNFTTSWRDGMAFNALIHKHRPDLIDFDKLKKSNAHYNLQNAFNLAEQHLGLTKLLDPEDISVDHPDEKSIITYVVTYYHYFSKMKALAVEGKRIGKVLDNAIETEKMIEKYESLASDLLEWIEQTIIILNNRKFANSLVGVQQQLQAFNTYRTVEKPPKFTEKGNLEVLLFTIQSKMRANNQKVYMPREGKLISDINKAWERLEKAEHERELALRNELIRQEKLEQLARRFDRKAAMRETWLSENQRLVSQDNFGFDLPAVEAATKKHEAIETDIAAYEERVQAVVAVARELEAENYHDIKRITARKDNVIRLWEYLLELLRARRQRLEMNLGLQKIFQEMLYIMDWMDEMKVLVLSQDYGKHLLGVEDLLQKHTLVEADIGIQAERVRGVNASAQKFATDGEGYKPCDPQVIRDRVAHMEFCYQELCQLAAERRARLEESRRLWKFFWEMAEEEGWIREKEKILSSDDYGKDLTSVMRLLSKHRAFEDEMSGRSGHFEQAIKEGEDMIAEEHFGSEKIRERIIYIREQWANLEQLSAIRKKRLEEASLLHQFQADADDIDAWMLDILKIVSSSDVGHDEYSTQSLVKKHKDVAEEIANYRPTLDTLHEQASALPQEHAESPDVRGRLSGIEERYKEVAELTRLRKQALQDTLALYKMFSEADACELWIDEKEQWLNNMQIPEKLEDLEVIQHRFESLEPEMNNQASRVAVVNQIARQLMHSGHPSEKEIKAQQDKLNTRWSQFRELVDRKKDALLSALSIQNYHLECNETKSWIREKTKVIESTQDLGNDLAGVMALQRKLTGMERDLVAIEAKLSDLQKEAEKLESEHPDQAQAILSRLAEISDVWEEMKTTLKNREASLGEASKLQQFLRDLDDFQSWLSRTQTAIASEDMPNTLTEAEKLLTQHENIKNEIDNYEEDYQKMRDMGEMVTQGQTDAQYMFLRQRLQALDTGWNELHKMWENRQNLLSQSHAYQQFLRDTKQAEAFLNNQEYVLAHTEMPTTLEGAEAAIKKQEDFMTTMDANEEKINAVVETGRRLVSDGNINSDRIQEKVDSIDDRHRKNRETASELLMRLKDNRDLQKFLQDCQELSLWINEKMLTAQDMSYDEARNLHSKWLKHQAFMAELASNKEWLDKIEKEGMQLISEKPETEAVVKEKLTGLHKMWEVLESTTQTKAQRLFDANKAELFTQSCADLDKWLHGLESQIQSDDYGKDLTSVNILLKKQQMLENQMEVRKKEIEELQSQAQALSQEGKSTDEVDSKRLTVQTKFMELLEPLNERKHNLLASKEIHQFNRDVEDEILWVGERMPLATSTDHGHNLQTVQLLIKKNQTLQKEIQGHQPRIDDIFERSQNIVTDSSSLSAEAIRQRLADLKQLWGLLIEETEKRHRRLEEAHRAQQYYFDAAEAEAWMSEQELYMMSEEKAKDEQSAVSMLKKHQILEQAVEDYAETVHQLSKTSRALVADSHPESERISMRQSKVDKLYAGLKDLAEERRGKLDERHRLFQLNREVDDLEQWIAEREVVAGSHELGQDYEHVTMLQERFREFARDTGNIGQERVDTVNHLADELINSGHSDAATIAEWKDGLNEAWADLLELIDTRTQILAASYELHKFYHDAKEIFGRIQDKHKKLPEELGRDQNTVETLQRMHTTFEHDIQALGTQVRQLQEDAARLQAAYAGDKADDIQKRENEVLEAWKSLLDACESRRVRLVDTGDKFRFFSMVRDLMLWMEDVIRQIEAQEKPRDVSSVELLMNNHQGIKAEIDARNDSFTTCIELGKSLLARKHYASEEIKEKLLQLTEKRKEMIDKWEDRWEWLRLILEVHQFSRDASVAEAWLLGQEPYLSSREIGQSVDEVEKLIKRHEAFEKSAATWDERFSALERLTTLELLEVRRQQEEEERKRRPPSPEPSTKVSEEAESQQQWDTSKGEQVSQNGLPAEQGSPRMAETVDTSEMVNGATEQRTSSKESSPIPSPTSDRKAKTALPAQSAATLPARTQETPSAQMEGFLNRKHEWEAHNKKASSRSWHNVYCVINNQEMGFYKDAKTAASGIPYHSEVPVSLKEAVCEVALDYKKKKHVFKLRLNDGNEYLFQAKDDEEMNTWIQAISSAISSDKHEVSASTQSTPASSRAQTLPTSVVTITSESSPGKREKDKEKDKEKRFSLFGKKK
UniProt O95793: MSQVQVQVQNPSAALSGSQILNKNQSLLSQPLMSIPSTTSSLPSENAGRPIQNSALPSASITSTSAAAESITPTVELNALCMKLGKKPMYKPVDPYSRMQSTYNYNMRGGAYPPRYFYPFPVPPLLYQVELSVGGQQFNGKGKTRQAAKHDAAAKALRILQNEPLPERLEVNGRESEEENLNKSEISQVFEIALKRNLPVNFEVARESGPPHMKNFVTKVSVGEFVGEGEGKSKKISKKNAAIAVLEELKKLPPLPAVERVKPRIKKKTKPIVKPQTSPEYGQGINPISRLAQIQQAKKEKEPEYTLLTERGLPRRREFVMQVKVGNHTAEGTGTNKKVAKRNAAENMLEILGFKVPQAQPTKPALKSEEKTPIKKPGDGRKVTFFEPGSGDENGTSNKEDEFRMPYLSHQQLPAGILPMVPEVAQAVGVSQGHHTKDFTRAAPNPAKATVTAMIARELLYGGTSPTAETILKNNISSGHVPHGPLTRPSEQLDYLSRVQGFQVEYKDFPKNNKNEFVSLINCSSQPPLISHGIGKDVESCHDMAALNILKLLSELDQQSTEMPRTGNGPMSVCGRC
UniProt Q5T280: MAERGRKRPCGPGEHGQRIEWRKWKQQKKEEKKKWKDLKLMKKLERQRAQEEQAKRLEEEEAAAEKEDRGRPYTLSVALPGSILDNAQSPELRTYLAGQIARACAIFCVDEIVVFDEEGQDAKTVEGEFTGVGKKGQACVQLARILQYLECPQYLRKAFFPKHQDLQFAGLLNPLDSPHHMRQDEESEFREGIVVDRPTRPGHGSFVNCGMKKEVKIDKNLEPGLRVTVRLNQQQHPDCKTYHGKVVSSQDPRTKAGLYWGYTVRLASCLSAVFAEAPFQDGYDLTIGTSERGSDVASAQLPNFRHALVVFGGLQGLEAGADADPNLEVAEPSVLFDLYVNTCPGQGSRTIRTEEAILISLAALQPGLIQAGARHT
UniProt Q9Y6N5: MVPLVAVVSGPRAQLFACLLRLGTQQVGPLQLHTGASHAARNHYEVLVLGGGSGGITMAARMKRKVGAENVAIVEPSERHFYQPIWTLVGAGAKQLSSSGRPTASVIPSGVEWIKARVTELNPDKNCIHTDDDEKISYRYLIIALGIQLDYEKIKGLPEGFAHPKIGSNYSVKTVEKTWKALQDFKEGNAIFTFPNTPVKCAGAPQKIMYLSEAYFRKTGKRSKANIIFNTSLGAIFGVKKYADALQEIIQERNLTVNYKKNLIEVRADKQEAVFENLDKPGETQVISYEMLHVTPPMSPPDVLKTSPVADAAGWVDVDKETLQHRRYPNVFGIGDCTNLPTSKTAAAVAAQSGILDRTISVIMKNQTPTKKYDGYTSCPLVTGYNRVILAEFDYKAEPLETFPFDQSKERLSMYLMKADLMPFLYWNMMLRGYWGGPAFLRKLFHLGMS
UniProt Q16384, whole entry, looked up: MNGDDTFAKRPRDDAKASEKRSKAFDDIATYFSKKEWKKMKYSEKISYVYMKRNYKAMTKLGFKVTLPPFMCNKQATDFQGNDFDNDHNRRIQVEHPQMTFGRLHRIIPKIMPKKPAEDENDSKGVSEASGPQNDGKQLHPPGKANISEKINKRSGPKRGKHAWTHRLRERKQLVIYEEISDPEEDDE
UniProt Q9NY15: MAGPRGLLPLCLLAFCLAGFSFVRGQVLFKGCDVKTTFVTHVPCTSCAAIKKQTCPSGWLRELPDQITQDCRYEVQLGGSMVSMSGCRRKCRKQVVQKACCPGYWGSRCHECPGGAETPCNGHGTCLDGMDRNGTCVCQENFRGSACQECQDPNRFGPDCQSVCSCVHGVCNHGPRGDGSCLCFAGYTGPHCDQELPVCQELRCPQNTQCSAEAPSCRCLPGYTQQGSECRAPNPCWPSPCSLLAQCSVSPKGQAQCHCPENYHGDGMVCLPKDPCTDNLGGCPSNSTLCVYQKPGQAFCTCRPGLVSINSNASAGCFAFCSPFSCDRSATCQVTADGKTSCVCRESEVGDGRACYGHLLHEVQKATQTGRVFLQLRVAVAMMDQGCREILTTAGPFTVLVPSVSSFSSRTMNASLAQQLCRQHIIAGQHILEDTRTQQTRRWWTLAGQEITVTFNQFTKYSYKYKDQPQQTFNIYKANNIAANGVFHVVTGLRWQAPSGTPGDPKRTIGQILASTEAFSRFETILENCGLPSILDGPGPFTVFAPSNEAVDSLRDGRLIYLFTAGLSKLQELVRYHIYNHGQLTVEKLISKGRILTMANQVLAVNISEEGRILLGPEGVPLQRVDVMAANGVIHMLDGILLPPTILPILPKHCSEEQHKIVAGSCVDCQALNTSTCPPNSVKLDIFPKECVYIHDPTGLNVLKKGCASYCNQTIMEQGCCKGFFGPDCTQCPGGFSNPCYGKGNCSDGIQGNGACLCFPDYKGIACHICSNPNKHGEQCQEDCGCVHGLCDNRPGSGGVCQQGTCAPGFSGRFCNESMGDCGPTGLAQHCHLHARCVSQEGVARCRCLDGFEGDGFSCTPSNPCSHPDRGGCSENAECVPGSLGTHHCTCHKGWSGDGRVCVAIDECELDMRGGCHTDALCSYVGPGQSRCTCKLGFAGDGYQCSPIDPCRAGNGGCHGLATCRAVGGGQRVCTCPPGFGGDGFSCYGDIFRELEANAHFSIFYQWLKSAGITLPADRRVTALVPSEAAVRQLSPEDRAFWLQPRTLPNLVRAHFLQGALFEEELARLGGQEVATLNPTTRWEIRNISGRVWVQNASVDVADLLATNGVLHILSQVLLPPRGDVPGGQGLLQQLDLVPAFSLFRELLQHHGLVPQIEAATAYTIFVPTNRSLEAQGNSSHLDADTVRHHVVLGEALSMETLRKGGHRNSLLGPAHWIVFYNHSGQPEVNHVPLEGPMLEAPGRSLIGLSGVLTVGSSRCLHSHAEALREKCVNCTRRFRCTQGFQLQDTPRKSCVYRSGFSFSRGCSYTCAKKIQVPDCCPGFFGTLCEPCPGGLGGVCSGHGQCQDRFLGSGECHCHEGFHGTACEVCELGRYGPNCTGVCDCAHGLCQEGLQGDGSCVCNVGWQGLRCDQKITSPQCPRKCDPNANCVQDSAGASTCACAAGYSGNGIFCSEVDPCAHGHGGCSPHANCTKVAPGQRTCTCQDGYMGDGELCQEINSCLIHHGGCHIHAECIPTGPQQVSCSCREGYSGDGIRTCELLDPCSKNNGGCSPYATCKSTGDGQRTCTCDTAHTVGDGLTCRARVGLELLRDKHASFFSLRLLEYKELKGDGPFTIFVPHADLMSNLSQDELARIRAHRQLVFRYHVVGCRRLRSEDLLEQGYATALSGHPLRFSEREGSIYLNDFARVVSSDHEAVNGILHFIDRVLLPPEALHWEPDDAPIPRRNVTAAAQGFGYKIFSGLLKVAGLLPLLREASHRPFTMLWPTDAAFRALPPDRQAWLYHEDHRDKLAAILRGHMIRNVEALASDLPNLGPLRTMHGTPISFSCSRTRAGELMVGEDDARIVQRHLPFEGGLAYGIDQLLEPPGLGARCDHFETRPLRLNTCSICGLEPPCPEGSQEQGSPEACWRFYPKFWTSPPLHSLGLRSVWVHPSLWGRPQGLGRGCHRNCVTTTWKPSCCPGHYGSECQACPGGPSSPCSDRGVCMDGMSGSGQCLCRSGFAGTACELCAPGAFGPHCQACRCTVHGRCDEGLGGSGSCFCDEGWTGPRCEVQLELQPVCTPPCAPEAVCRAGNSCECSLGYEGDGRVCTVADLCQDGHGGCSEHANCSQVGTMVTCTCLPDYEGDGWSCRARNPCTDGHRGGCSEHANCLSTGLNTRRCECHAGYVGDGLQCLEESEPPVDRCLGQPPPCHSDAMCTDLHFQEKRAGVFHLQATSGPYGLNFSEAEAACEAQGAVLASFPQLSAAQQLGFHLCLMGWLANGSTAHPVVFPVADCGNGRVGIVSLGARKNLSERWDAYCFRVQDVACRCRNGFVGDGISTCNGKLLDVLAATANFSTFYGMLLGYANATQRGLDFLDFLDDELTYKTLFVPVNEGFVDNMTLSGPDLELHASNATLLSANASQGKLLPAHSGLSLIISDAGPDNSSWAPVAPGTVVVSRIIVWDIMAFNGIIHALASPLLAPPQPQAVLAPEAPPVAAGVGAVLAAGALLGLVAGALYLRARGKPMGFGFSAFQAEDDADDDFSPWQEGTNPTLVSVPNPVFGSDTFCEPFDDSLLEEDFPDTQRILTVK

The targets below were run with Cn1cncc1[C@@](N)(c1ccc(Cl)cc1)c1ccc2c(c1)c(-c1cccc(Cl)c1)cc(=O)n2C [tipifarnib] (assay: log2 fold change, soluble protein after heating vs DMSO (PISA); higher = thermal stabilisation; K562 lysate, 10 uM; active = over 0.2 and 3.5 SD of the protein, either way, in both replicates (recomputed)).
Method in brief: (§1)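 The values are log-two fold changes in thermal stability compared with solvent controls and come from duplicates. They were obtained by TMTpro 16plex LC-MS/MS, with channel sums equalised, on the supernatant after 21,000xg for 90 min. That supernatant came from crude K562 extract at 1 mg/mL protein treated with 10 μM compound for 30 min, heated for 3 min across 48°C-58°C, pooled and brought to 0.5% NP-40 at 4°C.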

Target	log2 fold change
SPTBN1 isoform 3 (UniProt Q01082)	inactive: 0.049
ST3GAL4 isoform 4 (UniProt Q11206)	inactive: 0.034
SPICE1 (UniProt Q8N0Z3)	inactive: 0.103
SPRED2 (UniProt Q7Z698)	inactive: 0.089
SRCIN1 (UniProt Q9C0H9)	inactive: 0.082
STAP1 (UniProt Q9ULZ2)	inactive: 0.099
STAT1 isoform 2 (UniProt P42224)	inactive: -0.038
STAU1 isoform 3 (UniProt O95793)	inactive: 0.032
SPOUT1 (UniProt Q5T280)	inactive: -0.145
SS18L1 (UniProt O75177)	inactive: 0.066
SSBP4 (UniProt U3KPY3)	inactive: 0.027
SPTY2D1 (UniProt Q68D10)	inactive: -0.109
SSX2IP (UniProt Q9Y2D8)	inactive: -0.055
STAR (UniProt P49675)	inactive: 0.203
ST6GALNAC1 (UniProt Q9NSC7)	inactive: -0.123

The targets below were run with NC(=O)Nc1cc(-c2cccc(F)c2)sc1C(=O)N[C@H]1CCCNC1 in the same assay as above.
Method in brief: as §1

Target	log2 fold change
SPTBN1 isoform 3 (UniProt Q01082)	inactive: -0.046
STARD8 isoform 2 (UniProt Q92502)	inactive: -0.021
ST3GAL4 isoform 4 (UniProt Q11206)	inactive: -0.031
SQOR (UniProt Q9Y6N5)	inactive: 0.017
SSBP2 (UniProt P81877)	inactive: -0.097
STAT1 isoform 2 (UniProt P42224)	inactive: 0.01
STAU1 isoform 3 (UniProt O95793)	inactive: 0.088
SS18L1 (UniProt O75177)	inactive: -0.025
SPTY2D1 (UniProt Q68D10)	inactive: -0.083
SRGAP2, A0A075B7B5	inactive: -0.086
STAM (UniProt A6NMU3)	inactive: -0.011
SSX1 (UniProt Q16384)	inactive: 0.027
SPTAN1 isoform 3 (UniProt Q13813)	inactive: 0.071
SPRYD3 (UniProt Q8NCJ5)	inactive: 0.21
STAB1 (UniProt Q9NY15)	inactive: -0.368
SRRD (UniProt Q9UH36)	inactive: 0.043
STAR (UniProt P49675)	inactive: -0.135
SREBF1 isoform 4 (UniProt P36956)	inactive: 0.083
ST6GALNAC1 (UniProt Q9NSC7)	inactive: -0.032
ST3GAL1 (UniProt Q11201)	inactive: -0.074
SPC24 (UniProt K7ESQ2)	inactive: 0.112

These targets were tested with NC(=O)c1cnc(N[C@@H]2CCCC[C@@H]2N)nc1Nc1cccc(-n2nccn2)c1 in the same assay as above.
Method in brief: as §1

Target	log2 fold change
SPTBN1 isoform 3 (UniProt Q01082)	inactive: 0.042
SQOR (UniProt Q9Y6N5)	inactive: -0.013
SRCIN1 (UniProt Q9C0H9)	inactive: -0.026
SPOUT1 (UniProt Q5T280)	inactive: 0.027
STAM (UniProt A6NMU3)	inactive: 0.033
STAB1 (UniProt Q9NY15)	inactive: 0.075
SREBF1 isoform 4 (UniProt P36956)	inactive: -0.14

What follows are targets tested with NC1(c2ccc(-c3nc4ccn5c(=O)[nH]nc5c4cc3-c3ccccc3)cc2)CCC1 in the same assay as above.
Method in brief: as §1

Target	log2 fold change
SPTBN1 isoform 3 (UniProt Q01082)	inactive: -0.166
ST3GAL4 isoform 4 (UniProt Q11206)	inactive: -0.738
SPICE1 (UniProt Q8N0Z3)	inactive: -0.028
SQOR (UniProt Q9Y6N5)	inactive: 0.041
SSBP2 (UniProt P81877)	inactive: -0.103
SRCIN1 (UniProt Q9C0H9)	inactive: -0.223
STAP1 (UniProt Q9ULZ2)	inactive: -0.09
STAU1 isoform 3 (UniProt O95793)	inactive: -0.047
SPOUT1 (UniProt Q5T280)	inactive: 0.012
SS18L1 (UniProt O75177)	inactive: 0.052
SPTY2D1 (UniProt Q68D10)	inactive: -0.043
STAM (UniProt A6NMU3)	inactive: 0.047
SSX1 (UniProt Q16384)	inactive: -0.376
ST13P4 (UniProt Q8IZP2)	inactive: -0.011
SPRYD3 (UniProt Q8NCJ5)	inactive: -0.063
STAB1 (UniProt Q9NY15)	inactive: -0.024
STAR (UniProt P49675)	inactive: -0.146
SPRY2 (UniProt O43597)	inactive: 0.076
SREBF1 isoform 4 (UniProt P36956)	inactive: -0.178
ST6GALNAC1 (UniProt Q9NSC7)	inactive: -0.074
